These results are taken from patent US20230167184A1.

The chains behind the UniProt entries cited, without tags or fusion partners. Where a name states a change or a piece, a line headed by the entry shows the natural chain unless it says otherwise. Residues count along the entry.
UniProt Q02223: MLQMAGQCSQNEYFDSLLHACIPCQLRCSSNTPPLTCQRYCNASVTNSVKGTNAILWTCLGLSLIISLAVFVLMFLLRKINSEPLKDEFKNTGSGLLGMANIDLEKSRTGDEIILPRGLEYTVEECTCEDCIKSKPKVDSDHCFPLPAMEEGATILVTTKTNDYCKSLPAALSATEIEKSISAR
BCMA (antigen adsorbed onto the immunotube for panning): residues 1-54 of Q02223

Results are given in words; binding and its absence hold for the method and conditions named. Some results given as binding are weak or reduced against the parent protein; the word gives no strength.

Experiment [1] addresses BCMA on the surface of Raji cells (UniProt Q02223). Put plainly: FACS on Raji cells, scFv at 13.2 ug/mL, detected with anti-HA-PE (FIG. 1).
The target in experiment [2] is BCMA (antigen adsorbed onto the immunotube for panning) (UniProt Q02223). Kind of experiment: phage display panning on BCMA adsorbed to an immunotube, three or four rounds.

B1: OPAL B10 anti-BCMA scFv antibody (scFv, not shown: large carriers)
scFv: EVQLLESGGGLVQPGGSLRLSCAASGFTFSDYYMSWVRLAPGKGLEWVSAISHSSGNTYYADSVKGRFTISRDNSKNTLYLQMNSLRAEDTAVYYCAKNNWGFDYWGQGTLVTVSSGGGGSGGGGSGGGGSQSVLTQPPSASGTPGQRVTISCTGSSSNIGSNDVTWYQQLPGTAPKLLIYSDSKRPSGVPDRFSGSKSGTSASLAISGLRSEDEADYYCAAWDASLSGYVFGGGTKLTVL
For B1, the binding entry in experiment [1] and in experiment [2] was “binds” in each case.
